According to patent EP1171607B1, “STREPTOKINASE FRAGMENTS AND THEIR USE FOR INHIBITING CELL DEATH” (Rabkin, Simon W., priority 1999, dated 2000):
Not every detail of the peptide structures is certain; ends, links or a residue may be inferred. Where no end group is shown, it is not given here.

Tested on: Cardiac myocytes from embryonic chick hearts
Experiment: Amelioration of ammonium persulfate-induced cell death in cultured cardiac myocytes, Trypan blue exclusion
Type: cell-based
Details: 1 mM ammonium persulfate

| Sequence | percentage of dead cells (Peptide Concentration 5 µM) [%] | percentage of dead cells (Peptide Concentration 20 µM) [%] |
| --- | --- | --- |
| RLILDSRVLERYLLEAKEAE [Irrelevant #2] | 77.4 | 76.1 |
| NFLRGKLKLYTGEACRTGDR [Irrelevant #1] | 77.1 | 67.6 |
